Laboratory results from the supplement of paper PMC10849652.
This is one part of the list.

Chains of the proteins cited; added tags and fusions are not shown. Lines headed by an entry give the natural chain unless they say otherwise; changes in a name come on top.
UniProt Q14157: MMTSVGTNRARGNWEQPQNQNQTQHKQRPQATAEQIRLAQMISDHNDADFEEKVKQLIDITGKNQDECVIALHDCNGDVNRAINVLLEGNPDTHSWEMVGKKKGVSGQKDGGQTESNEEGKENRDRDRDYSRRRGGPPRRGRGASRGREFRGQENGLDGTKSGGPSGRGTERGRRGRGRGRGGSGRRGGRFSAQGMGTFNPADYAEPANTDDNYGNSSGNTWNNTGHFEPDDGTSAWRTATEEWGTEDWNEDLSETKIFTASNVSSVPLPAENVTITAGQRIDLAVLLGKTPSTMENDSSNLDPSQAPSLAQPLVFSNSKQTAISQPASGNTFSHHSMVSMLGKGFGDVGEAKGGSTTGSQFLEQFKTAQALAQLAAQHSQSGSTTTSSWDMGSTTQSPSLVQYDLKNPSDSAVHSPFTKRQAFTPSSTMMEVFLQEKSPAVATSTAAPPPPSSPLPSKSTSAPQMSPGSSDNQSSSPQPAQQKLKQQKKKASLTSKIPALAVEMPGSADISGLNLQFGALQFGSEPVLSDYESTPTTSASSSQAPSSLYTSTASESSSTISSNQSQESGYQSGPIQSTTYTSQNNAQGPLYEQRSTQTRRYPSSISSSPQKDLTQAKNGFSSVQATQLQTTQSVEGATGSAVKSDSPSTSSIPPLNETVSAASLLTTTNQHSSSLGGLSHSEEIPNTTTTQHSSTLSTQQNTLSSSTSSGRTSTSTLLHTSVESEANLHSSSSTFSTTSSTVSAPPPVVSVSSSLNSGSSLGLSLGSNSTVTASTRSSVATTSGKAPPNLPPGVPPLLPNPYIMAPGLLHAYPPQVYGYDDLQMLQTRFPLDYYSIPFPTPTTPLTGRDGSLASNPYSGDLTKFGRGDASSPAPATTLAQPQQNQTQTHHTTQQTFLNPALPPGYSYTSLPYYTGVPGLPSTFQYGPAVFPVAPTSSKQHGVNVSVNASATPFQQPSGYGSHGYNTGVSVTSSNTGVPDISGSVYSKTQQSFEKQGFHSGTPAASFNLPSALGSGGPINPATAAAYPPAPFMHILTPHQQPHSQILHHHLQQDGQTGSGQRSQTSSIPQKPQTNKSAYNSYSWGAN
UniProt P51965: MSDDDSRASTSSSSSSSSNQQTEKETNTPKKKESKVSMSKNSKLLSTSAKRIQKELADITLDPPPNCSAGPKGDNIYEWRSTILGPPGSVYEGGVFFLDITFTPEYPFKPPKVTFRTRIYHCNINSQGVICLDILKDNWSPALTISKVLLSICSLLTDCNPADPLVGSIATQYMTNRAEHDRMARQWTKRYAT
UniProt Q01081: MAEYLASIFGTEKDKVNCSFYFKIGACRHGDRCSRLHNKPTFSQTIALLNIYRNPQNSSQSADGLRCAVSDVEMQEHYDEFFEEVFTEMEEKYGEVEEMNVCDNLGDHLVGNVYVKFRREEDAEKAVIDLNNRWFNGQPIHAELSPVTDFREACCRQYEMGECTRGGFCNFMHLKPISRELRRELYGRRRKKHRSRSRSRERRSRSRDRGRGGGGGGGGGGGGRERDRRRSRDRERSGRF
UniProt Q9UJK0: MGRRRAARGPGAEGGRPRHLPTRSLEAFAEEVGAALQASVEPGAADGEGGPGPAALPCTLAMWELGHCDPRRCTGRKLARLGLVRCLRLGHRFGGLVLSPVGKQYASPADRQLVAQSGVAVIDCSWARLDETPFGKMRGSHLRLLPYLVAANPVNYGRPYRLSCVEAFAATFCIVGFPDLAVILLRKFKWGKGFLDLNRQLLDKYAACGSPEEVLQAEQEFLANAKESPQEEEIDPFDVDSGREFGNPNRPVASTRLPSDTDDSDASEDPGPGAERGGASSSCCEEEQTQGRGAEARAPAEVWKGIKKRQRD
UniProt Q7Z7E8: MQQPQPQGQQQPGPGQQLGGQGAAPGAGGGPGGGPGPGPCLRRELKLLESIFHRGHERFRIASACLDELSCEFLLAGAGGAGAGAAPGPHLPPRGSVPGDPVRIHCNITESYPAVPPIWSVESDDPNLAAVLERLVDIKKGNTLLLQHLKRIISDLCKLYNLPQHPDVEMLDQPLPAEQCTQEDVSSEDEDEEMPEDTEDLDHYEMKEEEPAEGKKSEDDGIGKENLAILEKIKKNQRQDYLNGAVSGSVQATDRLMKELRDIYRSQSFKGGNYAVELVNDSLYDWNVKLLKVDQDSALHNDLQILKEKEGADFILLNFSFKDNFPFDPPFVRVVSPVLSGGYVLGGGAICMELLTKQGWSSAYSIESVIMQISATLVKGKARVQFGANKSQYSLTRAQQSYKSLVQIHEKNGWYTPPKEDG
UniProt P61086: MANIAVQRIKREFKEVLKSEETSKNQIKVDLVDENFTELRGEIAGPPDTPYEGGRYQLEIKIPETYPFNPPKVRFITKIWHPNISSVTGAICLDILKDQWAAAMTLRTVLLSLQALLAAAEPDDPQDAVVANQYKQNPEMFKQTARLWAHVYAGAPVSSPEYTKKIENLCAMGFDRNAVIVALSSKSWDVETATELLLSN
UniProt Q8N2K1: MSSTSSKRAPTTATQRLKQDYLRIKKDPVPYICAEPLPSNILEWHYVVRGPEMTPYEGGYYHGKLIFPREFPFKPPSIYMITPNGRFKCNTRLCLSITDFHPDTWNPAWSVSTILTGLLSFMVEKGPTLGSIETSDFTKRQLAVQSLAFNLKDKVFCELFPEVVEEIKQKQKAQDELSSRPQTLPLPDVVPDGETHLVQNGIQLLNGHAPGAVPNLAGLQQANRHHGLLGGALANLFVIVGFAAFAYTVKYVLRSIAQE
UniProt Q16763: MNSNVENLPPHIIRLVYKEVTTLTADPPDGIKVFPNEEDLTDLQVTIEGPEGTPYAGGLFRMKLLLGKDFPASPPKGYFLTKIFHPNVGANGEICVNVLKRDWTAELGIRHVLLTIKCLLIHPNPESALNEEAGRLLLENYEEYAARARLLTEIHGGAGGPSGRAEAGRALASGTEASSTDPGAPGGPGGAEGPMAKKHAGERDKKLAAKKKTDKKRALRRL
UniProt P62256: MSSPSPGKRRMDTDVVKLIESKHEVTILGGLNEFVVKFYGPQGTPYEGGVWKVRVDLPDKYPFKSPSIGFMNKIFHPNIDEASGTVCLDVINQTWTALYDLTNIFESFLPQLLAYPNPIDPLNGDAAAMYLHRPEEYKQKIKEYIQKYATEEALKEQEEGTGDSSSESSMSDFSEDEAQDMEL
UniProt P04818: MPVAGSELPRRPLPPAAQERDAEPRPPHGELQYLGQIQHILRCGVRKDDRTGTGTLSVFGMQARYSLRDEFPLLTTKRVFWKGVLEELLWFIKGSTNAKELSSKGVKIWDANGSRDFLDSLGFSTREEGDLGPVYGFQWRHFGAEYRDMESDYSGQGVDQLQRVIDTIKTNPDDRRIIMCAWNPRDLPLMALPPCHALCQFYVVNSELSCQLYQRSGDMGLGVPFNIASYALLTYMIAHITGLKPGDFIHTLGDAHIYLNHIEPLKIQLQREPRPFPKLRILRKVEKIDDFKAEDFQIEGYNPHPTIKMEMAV
UniProt Q9BQE3, whole entry, looked up: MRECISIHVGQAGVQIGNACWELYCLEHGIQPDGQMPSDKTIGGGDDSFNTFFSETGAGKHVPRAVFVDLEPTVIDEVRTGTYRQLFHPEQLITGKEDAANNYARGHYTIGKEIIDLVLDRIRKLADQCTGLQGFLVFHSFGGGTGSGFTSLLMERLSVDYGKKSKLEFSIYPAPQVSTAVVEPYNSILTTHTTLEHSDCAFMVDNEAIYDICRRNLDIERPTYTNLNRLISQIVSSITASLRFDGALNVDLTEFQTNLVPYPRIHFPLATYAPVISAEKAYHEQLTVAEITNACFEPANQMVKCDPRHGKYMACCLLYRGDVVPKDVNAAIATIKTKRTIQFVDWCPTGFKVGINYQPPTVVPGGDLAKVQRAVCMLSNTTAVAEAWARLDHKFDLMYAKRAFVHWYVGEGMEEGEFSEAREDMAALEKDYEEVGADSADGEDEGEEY
UniProt Q9C0C9: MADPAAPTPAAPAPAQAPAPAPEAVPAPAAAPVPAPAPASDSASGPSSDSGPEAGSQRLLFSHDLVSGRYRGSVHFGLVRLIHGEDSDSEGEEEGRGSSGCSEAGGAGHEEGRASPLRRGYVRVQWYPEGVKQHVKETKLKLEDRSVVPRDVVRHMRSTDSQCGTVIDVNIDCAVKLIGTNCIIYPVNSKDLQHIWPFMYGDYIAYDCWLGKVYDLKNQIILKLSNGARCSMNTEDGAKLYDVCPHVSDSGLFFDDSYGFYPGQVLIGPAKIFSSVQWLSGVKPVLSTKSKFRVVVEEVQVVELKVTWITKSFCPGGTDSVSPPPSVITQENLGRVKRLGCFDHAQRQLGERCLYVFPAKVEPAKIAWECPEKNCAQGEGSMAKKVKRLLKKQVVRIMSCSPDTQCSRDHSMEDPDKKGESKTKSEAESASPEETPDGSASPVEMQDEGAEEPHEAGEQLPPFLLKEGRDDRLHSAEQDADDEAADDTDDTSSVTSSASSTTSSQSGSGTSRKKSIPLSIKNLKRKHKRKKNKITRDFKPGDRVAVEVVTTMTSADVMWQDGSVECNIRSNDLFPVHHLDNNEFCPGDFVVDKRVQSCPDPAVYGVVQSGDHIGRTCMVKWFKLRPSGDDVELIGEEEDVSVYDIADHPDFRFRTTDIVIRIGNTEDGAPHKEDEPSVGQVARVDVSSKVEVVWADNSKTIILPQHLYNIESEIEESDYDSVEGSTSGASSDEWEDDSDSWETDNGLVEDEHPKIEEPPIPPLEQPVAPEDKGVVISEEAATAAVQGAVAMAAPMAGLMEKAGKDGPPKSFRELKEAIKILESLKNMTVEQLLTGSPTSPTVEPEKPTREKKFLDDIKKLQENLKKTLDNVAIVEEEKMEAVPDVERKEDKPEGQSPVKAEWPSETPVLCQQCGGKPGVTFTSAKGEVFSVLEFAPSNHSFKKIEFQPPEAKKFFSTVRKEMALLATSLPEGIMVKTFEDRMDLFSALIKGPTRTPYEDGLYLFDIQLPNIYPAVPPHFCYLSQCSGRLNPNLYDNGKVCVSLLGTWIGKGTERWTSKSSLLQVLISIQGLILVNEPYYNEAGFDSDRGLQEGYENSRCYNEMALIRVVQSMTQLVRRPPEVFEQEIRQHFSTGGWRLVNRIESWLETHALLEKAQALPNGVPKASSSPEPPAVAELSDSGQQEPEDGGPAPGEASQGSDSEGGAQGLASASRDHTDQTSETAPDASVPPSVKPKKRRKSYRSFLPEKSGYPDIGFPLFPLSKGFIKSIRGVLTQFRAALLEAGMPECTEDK
UniProt Q9NPD8: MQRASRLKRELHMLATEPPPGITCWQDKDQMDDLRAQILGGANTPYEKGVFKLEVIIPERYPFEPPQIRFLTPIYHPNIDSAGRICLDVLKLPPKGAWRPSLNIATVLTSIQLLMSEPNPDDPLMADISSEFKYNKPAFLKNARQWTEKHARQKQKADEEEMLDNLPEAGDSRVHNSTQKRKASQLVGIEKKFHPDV
UniProt Q96AE7: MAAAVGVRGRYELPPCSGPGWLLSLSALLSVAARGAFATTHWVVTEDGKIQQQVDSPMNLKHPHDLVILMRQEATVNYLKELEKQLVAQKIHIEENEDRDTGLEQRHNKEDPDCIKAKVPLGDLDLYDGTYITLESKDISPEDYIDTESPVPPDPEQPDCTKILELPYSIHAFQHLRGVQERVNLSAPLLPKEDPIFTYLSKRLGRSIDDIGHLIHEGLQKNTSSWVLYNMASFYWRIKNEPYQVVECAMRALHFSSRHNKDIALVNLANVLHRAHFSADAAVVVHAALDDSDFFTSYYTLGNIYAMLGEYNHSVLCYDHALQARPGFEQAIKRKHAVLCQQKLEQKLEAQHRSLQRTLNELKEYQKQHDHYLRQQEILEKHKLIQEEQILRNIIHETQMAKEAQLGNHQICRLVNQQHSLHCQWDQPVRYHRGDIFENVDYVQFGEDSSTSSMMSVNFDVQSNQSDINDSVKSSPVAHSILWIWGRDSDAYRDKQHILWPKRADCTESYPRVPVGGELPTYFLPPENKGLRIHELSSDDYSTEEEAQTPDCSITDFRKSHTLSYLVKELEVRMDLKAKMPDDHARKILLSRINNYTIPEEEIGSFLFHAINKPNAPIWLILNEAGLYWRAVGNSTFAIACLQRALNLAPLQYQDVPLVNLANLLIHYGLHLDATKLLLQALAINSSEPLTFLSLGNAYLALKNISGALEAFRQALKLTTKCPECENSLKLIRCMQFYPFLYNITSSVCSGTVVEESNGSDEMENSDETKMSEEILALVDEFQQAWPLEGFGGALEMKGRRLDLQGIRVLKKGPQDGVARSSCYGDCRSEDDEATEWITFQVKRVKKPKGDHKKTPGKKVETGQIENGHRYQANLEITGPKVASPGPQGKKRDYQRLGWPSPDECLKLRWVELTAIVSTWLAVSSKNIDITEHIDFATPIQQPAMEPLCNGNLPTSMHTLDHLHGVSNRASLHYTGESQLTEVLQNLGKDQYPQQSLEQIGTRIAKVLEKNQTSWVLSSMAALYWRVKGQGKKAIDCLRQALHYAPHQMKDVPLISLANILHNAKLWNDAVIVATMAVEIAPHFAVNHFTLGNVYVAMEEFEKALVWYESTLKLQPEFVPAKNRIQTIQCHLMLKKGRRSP

Key:
Experiment in all cases: log2 fold change, soluble protein after heating vs DMSO (PISA); higher = thermal stabilisation; K562 cells, 10 uM, 30 min; active = over 0.2 and 3.5 SD of the protein, either way, in both replicates (recomputed)
bafetinib = compound: Cc1ccc(NC(=O)c2ccc(CN3CC[C@H](N(C)C)C3)c(C(F)(F)F)c2)cc1Nc1nccc(-c2cncnc2)n1 [bafetinib]
Outline: (§1)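 K562 cells at 2×10^6 cells/mL were treated for 30 min with 10 μM compound, and aliquots were heated for 3 min over 48°C-58°C before pooling. Extraction used PBS with 0.5% NP-40 at 4°C, and soluble protein was the supernatant after 21,000xg for 90 min, measured by TMTpro 16plex LC-MS/MS with channel sums equalised. Thermal stability values, relative to control samples and from duplicates, are log2 fold changes.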

[1] = compound: Cc1cccc(CC(=O)N2CCc3c2ccc(-c2cn(C)c4ncnc(N)c24)c3F)n1
Outline: as §1

nilotinib = compound: Cc1cn(-c2cc(NC(=O)c3ccc(C)c(Nc4nccc(-c5cccnc5)n4)c3)cc(C(F)(F)F)c2)cn1 [nilotinib]
Outline: as §1

[2] = compound: Cc1nc(Nc2n[nH]c3c2CN(C(=O)N[C@H](CN(C)C)c2ccccc2)C3(C)C)c2sccc2n1
Outline: as §1

dasatinib = compound: Cc1nc(Nc2ncc(C(=O)Nc3c(C)cccc3Cl)s2)cc(N2CCN(CCO)CC2)n1 [dasatinib]
Outline: as §1

[3] = compound: Cc1ncc(-c2ccnc(Nc3ccc(S(C)(=O)=O)cc3)n2)n1C(C)C
Outline: as §1

[4] = compound: Cn1cc(-c2ccc3c(c2)CCN3C(=O)Cc2cccc(C(F)(F)F)c2)c2c(N)ncnc21
Outline: as §1

[5] = compound: Cn1cc(-c2ccc3nnc(C(F)(F)c4ccc5ncccc5c4)n3n2)cn1
Outline: as §1

tipifarnib = compound: Cn1cncc1[C@@](N)(c1ccc(Cl)cc1)c1ccc2c(c1)c(-c1cccc(Cl)c1)cc(=O)n2C [tipifarnib]
Outline: as §1

mubritinib = compound: FC(F)(F)c1ccc(/C=C/c2nc(COc3ccc(CCCCn4ccnn4)cc3)co2)cc1 [mubritinib]
Outline: as §1

Measured: log2 fold change

UBE2G2 (UniProt P60604)
inactive: bafetinib -0.021 | [1] 0.096 | nilotinib -0.033 | [2] 0.044 | dasatinib -0.148 | [3] -0.015 | [4] 0.136 | [5] 0.222 | tipifarnib -0.033 | mubritinib 0.036

UBAP2L isoform 1 (UniProt Q14157)
inactive: bafetinib -0.006 | [1] -0.043 | nilotinib 0.013 | [2] -0.134 | dasatinib 0.058 | [3] -0.056 | [4] 0.064 | [5] 0.034 | tipifarnib 0.076 | mubritinib 0.07

UBE2E1 (UniProt P51965)
inactive: bafetinib -0.003 | [1] -0.048 | nilotinib -0.071 | [2] 0.018 | dasatinib -0.05 | [3] 0.031 | [5] 0.228 | tipifarnib -0.133 | mubritinib 0.138

U2AF1 isoform 2 (UniProt Q01081)
active: [2] -1.31
inactive: bafetinib 0.037 | [1] -0.06 | nilotinib -0.017 | dasatinib -0.056 | [3] 0.058 | [4] 0.01 | [5] -0.06 | tipifarnib 0.034 | mubritinib -0.099

TSR3 (UniProt Q9UJK0)
inactive: bafetinib 0.052 | [1] -0.036 | nilotinib 0.021 | [2] 0.019 | dasatinib 0.042 | [3] 0 | [4] -0.043 | [5] -0.019 | tipifarnib 0.1 | mubritinib 0.01

TTL (UniProt Q8NG68)
inactive: bafetinib -0.043 | [1] 0.033 | nilotinib 0.085 | [2] -0.029 | dasatinib -0.057 | [3] -0.034 | [4] 0.127 | [5] 0.009 | tipifarnib -0.029 | mubritinib 0.033

UBA5 (UniProt Q9GZZ9)
inactive: bafetinib -0.048 | [1] 0.013 | nilotinib 0.012 | [2] 0.011 | dasatinib -0.022 | [3] 0.005 | [4] 0.059 | [5] 0.014 | tipifarnib -0.127 | mubritinib 0.016

TUT4 (UniProt Q5TAX3)
inactive: bafetinib -0.281 | [1] 0.074 | nilotinib -0.153 | [2] 0.01 | dasatinib -0.105 | [3] -0.116 | [4] -0.097 | [5] -0.066 | tipifarnib -0.049 | mubritinib -0.01

TSEN54 (UniProt Q7Z6J9)
inactive: bafetinib -0.176 | [1] -0.004 | nilotinib -0.103 | [2] -0.102 | dasatinib -0.114 | [3] 0.039 | [4] 0.045 | [5] 0.039 | tipifarnib 0.03 | mubritinib -0.062

TWISTNB (UniProt Q3B726)
inactive: bafetinib 0.064 | [1] -0.075 | dasatinib -0.129 | [4] -0.031 | tipifarnib 0.042 | mubritinib 0.104

TXNRD1 (UniProt Q16881)
active: mubritinib 0.225
inactive: bafetinib -0.012 | [1] -0.011 | nilotinib 0.097 | [2] -0.013 | dasatinib -0.013 | [3] -0.002 | [4] 0.067 | [5] 0.021 | tipifarnib -0.107

UBAP2L (UniProt F8W726)
inactive: bafetinib 0.02 | [1] -0.049 | nilotinib 0.151 | [2] 0.063 | [3] -0.109 | tipifarnib 0.245 | mubritinib -0.032

UBE2Q1 (UniProt Q7Z7E8)
inactive: bafetinib -0.029 | [1] 0.015 | nilotinib -0.134 | [2] -0.103 | dasatinib -0.101 | [3] -0.046 | [4] -0.012 | [5] 0.027 | tipifarnib -0.103 | mubritinib 0.006

UBE2K (UniProt P61086)
inactive: bafetinib 0.057 | [1] -0.015 | nilotinib 0.006 | [2] -0.055 | dasatinib -0.011 | [3] -0.01 | [4] 0.02 | [5] -0.04 | tipifarnib -0.064 | mubritinib 0.038

UBE2J2 isoform 3 (UniProt Q8N2K1)
inactive: bafetinib 0.037 | [1] -0.12 | dasatinib -0.154 | [4] 0.013 | tipifarnib 0.041

UBE2S (UniProt Q16763)
inactive: bafetinib -0.025 | [1] -0.08 | nilotinib -0.008 | [2] -0.017 | dasatinib 0.001 | [3] 0.04 | [4] -0.002 | [5] -0.037 | tipifarnib -0.072 | mubritinib 0.002

UBE2H (UniProt P62256)
inactive: bafetinib -0.099 | [1] 0.044 | nilotinib -0.006 | [2] -0.034 | dasatinib -0.001 | [3] -0.014 | [4] 0.004 | [5] 0.05 | tipifarnib -0.013 | mubritinib 0.022

TSFM (UniProt P43897)
inactive: bafetinib 0.091 | [1] -0.087 | nilotinib 0.062 | [2] -0.217 | dasatinib -0.143 | [3] 0.039 | [4] 0.033 | [5] 0.033 | tipifarnib 0.013
active: mubritinib -0.36

UBAP1 isoform 4 (UniProt Q9NZ09)
inactive: bafetinib -0.026 | [1] -0.022 | nilotinib -0.082 | [2] -0.15 | dasatinib -0.086 | [3] 0.009 | [4] 0.015 | [5] -0.015 | tipifarnib -0.131 | mubritinib 0.084

2 successive records already listed, for reference:
UBE2S (UniProt Q16763)
inactive: bafetinib -0.025 | [1] -0.08 | nilotinib -0.008 | [2] -0.017 | dasatinib 0.001 | [3] 0.04 | [4] -0.002 | [5] -0.037 | tipifarnib -0.072 | mubritinib 0.002

UBE2H (UniProt P62256)
inactive: bafetinib -0.099 | [1] 0.044 | nilotinib -0.006 | [2] -0.034 | dasatinib -0.001 | [3] -0.014 | [4] 0.004 | [5] 0.05 | tipifarnib -0.013 | mubritinib 0.022

Remaining list, next part

UBAC1 (UniProt Q9BSL1)
inactive: bafetinib -0.078 | [1] 0.038 | nilotinib -0.046 | [2] -0.057 | dasatinib -0.079 | [3] -0.033 | [4] 0.036 | [5] 0.01 | tipifarnib -0.024 | mubritinib 0.041

TYMS (UniProt P04818)
inactive: bafetinib 0 | [1] 0.021 | nilotinib -0.042 | [2] -0.076 | dasatinib -0.033 | [3] -0.016 | [4] 0.073 | [5] -0.005 | tipifarnib -0.05 | mubritinib 0.115

TTC27 (UniProt Q6P3X3)
inactive: bafetinib 0.077 | [1] 0.123 | nilotinib -0.089 | [2] -0.162 | dasatinib -0.09 | [3] 0.054 | [4] -0.105 | [5] -0.129 | tipifarnib -0.052 | mubritinib -0.082

TUBB1 (UniProt Q9H4B7)
inactive: bafetinib 0.064 | [1] 0.025 | nilotinib 0.086 | [2] -0.025 | dasatinib -0.059 | [3] 0.02 | [4] 0.103 | [5] 0.019 | tipifarnib -0.041 | mubritinib 0.001

TUBB4A (UniProt M0QYM7)
inactive: bafetinib -0.043 | [1] -0.1 | nilotinib -0.461 | [2] 0.157 | dasatinib 0.039 | [3] -0.07 | [4] -0.075 | tipifarnib 0.172 | mubritinib 0.086

TUBA1C (UniProt Q9BQE3)
inactive: bafetinib -0.03 | [1] 0.005 | nilotinib 0.043 | [2] 0.005 | dasatinib -0.088 | [3] -0.024 | [4] 0.069 | [5] 0.028 | tipifarnib -0.015 | mubritinib 0.025

UBE2O (UniProt Q9C0C9)
inactive: bafetinib 0.009 | [1] 0.014 | nilotinib -0.015 | [2] 0.002 | dasatinib -0.05 | [3] -0.031 | [4] 0.078 | [5] 0.031 | tipifarnib -0.045 | mubritinib 0.109

UBE2T (UniProt Q9NPD8)
inactive: bafetinib -0.007 | [1] 0.039 | nilotinib -0.071 | [2] 0.008 | dasatinib -0.05 | [3] -0.023 | [4] 0.025 | [5] 0 | tipifarnib -0.107 | mubritinib 0.038

TUBA8 (UniProt Q9NY65)
inactive: bafetinib 0.475 | [1] -0.102 | nilotinib -0.197 | [2] 0.3 | [3] -0.093 | [4] -0.822 | [5] -0.267 | tipifarnib 0.165 | mubritinib -0.023

TTC17 isoform 2 (UniProt Q96AE7)
inactive: [1] -0.025 | tipifarnib 0.036

TUBB4A (UniProt P04350)
inactive: bafetinib 0.033 | nilotinib 0.012 | [2] 0.026 | dasatinib -0.059 | [3] -0.066 | [4] 0.142 | [5] -0.038 | tipifarnib -0.167 | mubritinib 0.122
